Test results from PMC6420622.
Results are given in words; binding and its absence hold for the method and conditions named. For part of these data: Binding seen in cells or lysates may run through a third protein. Some entries that bind do so weakly or less than the wild type.

Protein sequences, listed by entry. Tags and fused reporters are not part of them. Lines headed by an entry give the natural chain unless they say otherwise; changes in a name come on top.
UniProt Q8N371: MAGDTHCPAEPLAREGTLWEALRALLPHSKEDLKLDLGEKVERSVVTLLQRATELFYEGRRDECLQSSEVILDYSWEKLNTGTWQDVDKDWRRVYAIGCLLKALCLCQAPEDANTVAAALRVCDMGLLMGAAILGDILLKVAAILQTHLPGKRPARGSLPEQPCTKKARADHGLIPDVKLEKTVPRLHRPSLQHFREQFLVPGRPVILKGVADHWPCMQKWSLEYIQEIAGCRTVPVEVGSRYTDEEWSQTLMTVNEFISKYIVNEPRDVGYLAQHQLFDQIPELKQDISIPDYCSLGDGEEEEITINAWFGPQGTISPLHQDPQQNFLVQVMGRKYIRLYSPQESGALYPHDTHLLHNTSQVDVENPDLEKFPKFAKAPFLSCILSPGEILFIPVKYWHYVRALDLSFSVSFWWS
UniProt P14618: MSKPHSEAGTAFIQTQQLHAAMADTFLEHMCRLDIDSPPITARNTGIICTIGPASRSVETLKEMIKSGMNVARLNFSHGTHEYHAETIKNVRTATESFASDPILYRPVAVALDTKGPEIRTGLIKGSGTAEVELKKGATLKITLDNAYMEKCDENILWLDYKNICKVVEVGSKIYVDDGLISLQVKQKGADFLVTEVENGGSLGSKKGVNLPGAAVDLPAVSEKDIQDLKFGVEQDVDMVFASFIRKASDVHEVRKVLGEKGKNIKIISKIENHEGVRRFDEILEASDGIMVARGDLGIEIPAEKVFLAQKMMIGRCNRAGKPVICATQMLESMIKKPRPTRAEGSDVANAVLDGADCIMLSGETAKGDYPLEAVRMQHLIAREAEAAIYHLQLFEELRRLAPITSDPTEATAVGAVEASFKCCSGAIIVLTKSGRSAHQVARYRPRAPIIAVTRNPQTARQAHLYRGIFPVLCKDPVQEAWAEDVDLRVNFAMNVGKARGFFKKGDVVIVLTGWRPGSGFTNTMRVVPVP

Legend:
[1] = target: Flag-tagged KDM8 (UniProt Q8N371); assay: co-IP; reciprocal: MCF7 cells co-transfected with HA-PKM2 (wild-type or variant) and Flag-KDM8; IP with anti-Flag, protein A/G magnetic beads, 4 °C overnight; Western blotting
[2] = target: endogenous KDM8 (human (endogenous in MCF7)) (UniProt Q8N371); assay: co-IP; MCF7 cells transfected with HA-PKM2 (wild-type or variant); IP of endogenous KDM8 with homemade rabbit anti-KDM8; Western blotting
[3] = target: GST-tagged KDM8 (UniProt Q8N371); assay: pull-down; His-PKM2 (2 uM) with GST-KDM8 (1 uM) or GST (1 uM) on Glutathione Sepharose; 40 mM Tris, 100 mM NaCl, 0.5% NP-40, pH 8.0; 2 h, 4 °C; Coomassie and anti-His Western blotting; both purified
[4] = target: HA-tagged PKM2 H391Y (UniProt P14618); assay: co-IP; MCF7 cells co-transfected with HA-PKM2 (wild-type or variant) and Flag-KDM8; IP with anti-HA, protein A/G magnetic beads, 4 °C overnight; IP lysis buffer 50 mM Tris-HCl pH 7.4, 150 mM NaCl, 0.5% NP-40; Western blotting
[5] = target: HA-tagged PKM2 wild-type (UniProt P14618); assay: as above
[6] = target: HA-tagged PKM2 G415R (UniProt P14618); assay: as above
[7] = target: HA-tagged PKM2 R399E (UniProt P14618); assay: as above

| binding [1] | binding [2] | binding [3] | Substance | further results |
| --- | --- | --- | --- | --- |
| binds | binds | – | HA-tagged PKM2 H391Y (from UniProt P14618 1-531) (enzyme) | – |
| binds | binds | – | HA-tagged PKM2 wild-type (from UniProt P14618 1-531) (enzyme) | – |
| – | – | binds | His-tagged PKM2 H391Y (from UniProt P14618 1-531) (enzyme) | – |
| binds | binds | – | HA-tagged PKM2 R399E (from UniProt P14618 1-531) (enzyme) | – |
| binds | binds | – | HA-tagged PKM2 G415R (from UniProt P14618 1-531) (enzyme) | – |
| – | – | – | Flag-tagged KDM8 (from UniProt Q8N371 1-416) (enzyme) | binding [4]: binds; binding [5]: binds; binding [6]: binds; binding [7]: binds |
| – | – | binds | His-tagged PKM2 wild-type (from UniProt P14618 1-531) (enzyme) | – |
| – | – | binds | His-tagged PKM2 R399E (from UniProt P14618 1-531) (enzyme) | – |
